From the supplement of paper PMC12823440, “Inhibitors supercharge kinase turnover through native proteolytic circuits” (Nature, 2025)
Counter-ions that a name gives are not always drawn. Some of the results follow. The calls rarely recur for the same compound in another form.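 In K562 cells expressing nanoluciferase-fused kinases, luminescence was recorded at 4 h intervals between 2 and 18 h, normalized as percent of control with DMSO at 100% and a positive control at 0%. A significant (2 sigma) signal drop marks a time point as decreased. The authors' rule for a hit is not shown and takes in more than the number of time points.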

Chains of the proteins cited; added tags and fusions are not shown. Lines headed by an entry give the natural chain unless they say otherwise; changes in a name come on top.
UniProt Q8IWU2: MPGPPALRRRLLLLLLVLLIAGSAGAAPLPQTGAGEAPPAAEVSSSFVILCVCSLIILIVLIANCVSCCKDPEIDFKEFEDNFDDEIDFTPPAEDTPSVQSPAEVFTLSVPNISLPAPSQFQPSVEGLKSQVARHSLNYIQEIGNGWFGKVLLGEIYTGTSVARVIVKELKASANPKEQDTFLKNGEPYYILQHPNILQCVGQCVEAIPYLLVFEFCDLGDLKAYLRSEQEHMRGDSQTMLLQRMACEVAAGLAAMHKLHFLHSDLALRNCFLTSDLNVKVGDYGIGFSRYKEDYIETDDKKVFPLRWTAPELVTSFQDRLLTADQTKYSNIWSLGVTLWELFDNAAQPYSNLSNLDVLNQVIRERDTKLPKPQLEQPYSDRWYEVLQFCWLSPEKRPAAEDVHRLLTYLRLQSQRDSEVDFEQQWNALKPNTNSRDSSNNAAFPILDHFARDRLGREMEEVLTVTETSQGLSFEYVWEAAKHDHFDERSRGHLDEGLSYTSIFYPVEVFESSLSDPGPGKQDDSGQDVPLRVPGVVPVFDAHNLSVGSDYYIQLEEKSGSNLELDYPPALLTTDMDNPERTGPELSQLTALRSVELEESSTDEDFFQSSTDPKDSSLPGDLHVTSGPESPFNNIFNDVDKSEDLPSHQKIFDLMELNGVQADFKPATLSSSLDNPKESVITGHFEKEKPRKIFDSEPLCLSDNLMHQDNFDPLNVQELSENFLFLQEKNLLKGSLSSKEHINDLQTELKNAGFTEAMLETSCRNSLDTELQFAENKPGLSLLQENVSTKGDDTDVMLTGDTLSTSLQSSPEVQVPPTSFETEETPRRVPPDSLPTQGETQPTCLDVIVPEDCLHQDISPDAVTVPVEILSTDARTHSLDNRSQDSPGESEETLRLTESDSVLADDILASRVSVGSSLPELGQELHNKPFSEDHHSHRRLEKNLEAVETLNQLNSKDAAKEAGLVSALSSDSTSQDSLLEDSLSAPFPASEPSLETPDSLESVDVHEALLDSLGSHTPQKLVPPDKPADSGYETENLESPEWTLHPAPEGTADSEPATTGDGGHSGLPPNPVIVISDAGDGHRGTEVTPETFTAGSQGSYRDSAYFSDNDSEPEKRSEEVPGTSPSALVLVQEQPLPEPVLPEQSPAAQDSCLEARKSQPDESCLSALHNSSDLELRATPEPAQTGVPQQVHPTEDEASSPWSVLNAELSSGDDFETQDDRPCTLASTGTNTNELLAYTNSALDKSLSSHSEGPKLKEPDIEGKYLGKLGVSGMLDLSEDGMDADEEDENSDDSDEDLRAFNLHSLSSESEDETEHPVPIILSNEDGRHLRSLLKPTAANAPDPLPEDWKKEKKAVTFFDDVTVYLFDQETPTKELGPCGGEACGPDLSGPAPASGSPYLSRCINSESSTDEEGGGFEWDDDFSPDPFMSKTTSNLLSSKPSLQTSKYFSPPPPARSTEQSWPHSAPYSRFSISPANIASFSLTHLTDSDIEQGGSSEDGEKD
UniProt P07948: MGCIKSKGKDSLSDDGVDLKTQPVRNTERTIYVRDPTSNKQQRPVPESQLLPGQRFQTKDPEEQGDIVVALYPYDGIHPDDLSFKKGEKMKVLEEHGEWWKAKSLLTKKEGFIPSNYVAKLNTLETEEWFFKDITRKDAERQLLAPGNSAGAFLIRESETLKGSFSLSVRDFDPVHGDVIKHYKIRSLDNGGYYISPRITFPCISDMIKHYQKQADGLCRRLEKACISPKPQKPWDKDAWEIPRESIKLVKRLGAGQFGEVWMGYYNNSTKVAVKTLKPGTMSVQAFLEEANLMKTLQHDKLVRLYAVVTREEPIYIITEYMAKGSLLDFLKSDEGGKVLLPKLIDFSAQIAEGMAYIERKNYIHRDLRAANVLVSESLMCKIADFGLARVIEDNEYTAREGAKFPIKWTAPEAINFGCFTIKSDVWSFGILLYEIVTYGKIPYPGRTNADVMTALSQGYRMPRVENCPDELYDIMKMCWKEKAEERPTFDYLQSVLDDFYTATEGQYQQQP
UniProt Q12851: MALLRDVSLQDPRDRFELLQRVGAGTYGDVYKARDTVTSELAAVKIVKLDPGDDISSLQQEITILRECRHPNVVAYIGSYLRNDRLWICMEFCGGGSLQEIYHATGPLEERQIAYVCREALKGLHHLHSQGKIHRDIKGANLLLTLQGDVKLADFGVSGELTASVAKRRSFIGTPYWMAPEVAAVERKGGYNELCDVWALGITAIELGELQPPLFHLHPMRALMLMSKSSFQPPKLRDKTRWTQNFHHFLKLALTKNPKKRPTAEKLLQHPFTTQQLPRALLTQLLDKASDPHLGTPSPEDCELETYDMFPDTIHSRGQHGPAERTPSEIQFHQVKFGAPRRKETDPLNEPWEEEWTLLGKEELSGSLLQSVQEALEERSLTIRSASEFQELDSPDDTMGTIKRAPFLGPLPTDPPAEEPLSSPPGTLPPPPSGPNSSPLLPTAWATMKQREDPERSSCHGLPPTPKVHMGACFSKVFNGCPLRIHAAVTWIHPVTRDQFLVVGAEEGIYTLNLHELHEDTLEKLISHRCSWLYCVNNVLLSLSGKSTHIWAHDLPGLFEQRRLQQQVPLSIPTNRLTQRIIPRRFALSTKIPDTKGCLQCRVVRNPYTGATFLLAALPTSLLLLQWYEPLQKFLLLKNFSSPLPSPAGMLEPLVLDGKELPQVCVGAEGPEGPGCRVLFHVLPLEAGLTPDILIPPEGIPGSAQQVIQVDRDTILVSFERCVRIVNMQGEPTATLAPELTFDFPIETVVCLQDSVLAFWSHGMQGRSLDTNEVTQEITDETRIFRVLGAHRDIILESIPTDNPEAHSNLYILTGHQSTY
UniProt P28482, whole entry: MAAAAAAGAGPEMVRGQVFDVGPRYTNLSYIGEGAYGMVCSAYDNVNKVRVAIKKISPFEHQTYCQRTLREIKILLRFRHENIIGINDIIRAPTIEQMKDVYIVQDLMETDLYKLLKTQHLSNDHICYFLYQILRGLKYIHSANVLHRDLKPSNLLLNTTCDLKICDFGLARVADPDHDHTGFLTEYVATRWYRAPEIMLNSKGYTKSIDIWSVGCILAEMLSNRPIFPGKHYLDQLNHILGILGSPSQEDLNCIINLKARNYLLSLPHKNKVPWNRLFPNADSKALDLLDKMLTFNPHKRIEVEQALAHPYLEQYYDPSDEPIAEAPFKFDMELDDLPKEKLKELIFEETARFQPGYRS
UniProt P31152, whole entry: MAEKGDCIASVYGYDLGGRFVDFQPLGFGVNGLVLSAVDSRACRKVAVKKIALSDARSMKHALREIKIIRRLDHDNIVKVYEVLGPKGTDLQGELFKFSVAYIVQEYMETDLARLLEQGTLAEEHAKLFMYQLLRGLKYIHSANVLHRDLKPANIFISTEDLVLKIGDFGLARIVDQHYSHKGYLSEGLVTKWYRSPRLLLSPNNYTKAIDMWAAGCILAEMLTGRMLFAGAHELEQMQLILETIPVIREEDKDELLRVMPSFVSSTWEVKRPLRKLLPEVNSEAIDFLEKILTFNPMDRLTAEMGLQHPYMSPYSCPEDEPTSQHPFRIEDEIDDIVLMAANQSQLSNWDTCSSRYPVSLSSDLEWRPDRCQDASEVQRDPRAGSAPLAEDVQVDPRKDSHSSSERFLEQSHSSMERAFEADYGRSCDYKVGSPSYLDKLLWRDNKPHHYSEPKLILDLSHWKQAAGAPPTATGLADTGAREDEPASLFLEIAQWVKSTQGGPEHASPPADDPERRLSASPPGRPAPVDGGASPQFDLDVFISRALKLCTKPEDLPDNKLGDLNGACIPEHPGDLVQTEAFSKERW
UniProt P49137, whole entry, looked up: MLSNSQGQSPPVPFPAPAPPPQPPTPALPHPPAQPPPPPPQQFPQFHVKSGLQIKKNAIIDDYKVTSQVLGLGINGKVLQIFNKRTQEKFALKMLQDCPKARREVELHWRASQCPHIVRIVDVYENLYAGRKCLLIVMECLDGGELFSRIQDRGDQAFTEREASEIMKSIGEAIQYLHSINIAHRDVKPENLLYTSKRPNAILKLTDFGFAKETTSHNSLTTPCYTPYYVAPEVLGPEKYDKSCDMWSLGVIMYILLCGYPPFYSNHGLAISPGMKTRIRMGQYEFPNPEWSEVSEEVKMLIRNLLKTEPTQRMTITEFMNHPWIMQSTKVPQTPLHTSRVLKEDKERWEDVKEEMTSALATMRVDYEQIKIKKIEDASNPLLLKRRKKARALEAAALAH
UniProt Q9BUB5: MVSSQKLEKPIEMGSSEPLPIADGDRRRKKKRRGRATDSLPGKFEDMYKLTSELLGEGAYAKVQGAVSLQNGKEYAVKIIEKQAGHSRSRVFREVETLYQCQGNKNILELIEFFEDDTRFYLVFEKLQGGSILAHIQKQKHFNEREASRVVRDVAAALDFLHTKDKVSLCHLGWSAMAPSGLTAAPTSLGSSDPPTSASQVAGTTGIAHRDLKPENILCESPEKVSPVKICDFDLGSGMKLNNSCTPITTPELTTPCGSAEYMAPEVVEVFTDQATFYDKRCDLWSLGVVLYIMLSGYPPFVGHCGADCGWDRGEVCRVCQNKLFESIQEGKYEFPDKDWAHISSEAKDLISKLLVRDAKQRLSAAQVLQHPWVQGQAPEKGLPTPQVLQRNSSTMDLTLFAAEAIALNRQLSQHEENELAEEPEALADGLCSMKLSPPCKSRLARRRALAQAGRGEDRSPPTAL
UniProt Q16620, whole entry, looked up: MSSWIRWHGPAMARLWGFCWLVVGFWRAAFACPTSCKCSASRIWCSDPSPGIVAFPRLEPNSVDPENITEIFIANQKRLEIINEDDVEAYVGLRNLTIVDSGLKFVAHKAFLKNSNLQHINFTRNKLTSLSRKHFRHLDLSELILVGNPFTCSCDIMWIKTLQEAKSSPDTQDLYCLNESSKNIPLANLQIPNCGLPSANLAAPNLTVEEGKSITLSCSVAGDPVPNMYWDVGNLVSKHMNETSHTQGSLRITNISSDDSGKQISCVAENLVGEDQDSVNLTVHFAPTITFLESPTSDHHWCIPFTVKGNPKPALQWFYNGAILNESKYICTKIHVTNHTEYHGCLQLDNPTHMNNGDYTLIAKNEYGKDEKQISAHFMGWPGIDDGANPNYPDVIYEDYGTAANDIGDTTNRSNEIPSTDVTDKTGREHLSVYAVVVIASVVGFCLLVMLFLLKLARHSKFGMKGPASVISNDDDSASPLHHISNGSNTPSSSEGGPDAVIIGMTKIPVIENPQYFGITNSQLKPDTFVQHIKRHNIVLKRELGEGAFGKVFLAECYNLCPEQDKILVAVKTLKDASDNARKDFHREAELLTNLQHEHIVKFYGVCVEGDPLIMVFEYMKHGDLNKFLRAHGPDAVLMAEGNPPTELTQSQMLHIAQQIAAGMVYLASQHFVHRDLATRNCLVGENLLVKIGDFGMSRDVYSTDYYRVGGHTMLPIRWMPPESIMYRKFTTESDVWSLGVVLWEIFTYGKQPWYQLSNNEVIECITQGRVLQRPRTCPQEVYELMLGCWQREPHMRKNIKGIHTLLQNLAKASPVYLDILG

Legend:
Assay in all cases: number of time points (of 5) at which kinase-Nluc abundance scored as decreased, DMSO-normalised (count); higher = more persistent destabilization
Settings in all cases: K562; 2-18 h
[1] = target: LMTK2 (UniProt Q8IWU2)
[2] = target: LYN (UniProt P07948)
[3] = target: MAP2K1 (UniProt Q02750)
[4] = target: MAP2K2 (UniProt P36507)
[5] = target: MAP4K2 (UniProt Q12851)
[6] = target: MAPK1 (UniProt P28482)
[7] = target: MAPK4 (UniProt P31152)
[8] = target: MAPKAPK2 (UniProt P49137)
[9] = target: MKNK1 (UniProt Q9BUB5)
[10] = target: NTRK2 (UniProt Q16620)

Compound | number of time points [1] | number of time points [2] | number of time points [3] | number of time points [4] | number of time points [5] | number of time points [6] | number of time points [7] | number of time points [8] | number of time points [9] | number of time points [10]
C=CC(=O)N1CCC[C@@H](n2nc(-c3ccc(Oc4ccccc4)cc3)c(C(N)=O)c2N)C1 [Btk inhibitor 2] (10 µM) | 0 | 0 | 0 | 0 | 0 | 0 | 0 | 0 | 0 | 0
c1cc(OCCN2CCCCC2)cc(-c2n[nH]c3ccc(-c4nnc[nH]4)cc23)c1 [CC-401 (hydrochloride)] (10 µM) | 0 | 0 | 0 | 0 | 0 | 0 | 0 | 0 | 0 | –
COc1ccc(Oc2cc(NCCC(F)(F)F)c3ncc(-c4ccc(C(=O)NC5CC5)c(C)c4)n3n2)c(F)c1F (2.5 µM) | 0 | 0 | 0 | 0 | 0 | 0 | 0 | 0 | 0 | 0
Oc1cc(O)cc(/C=C/c2ccc(O)c(O)c2)c1 [Piceatannol] (10 µM) | 3 | 0 | 0 | 0 | 0 | 0 | 0 | 2 | 0 | 3
Cc1c[nH]c2nccc(Oc3c(F)cc(Nc4cc(Cl)nc(N)n4)cc3F)c12 (10 µM) | 0 | 0 | 0 | 0 | 0 | 0 | 0 | 0 | 1 | 0
O=C1c2ccccc2-c2n[nH]c3cccc1c23 (10 µM) | 0 | 0 | 0 | 0 | 0 | 0 | 0 | 0 | 0 | 0
O=C1NC(=NCc2cccs2)S/C1=C\c1ccc2ncccc2c1 (10 µM) | 0 | 0 | 0 | 0 | 0 | 0 | 0 | 0 | 0 | 0
Cc1ccc(NC(=O)c2cccc(N(C)C)c2)cc1NC(=O)c1ccc(O)cc1 (10 µM) | 0 | 0 | 0 | 0 | 0 | 0 | 0 | 0 | 0 | 0
CCn1c(=O)c2cc(C(N)=O)c(N)nc2n(C2CC2)c1=O (10 µM) | 0 | 0 | 0 | 0 | 0 | 0 | 0 | 0 | 0 | 0
CNC(=O)c1ccccc1Nc1nc(Nc2ccc(N3CCOCC3)cc2OC)ncc1Cl (2.5 µM) | 0 | 0 | 0 | 0 | 0 | 0 | 0 | 0 | 0 | 0
FC(F)(F)c1ccc(CNc2ccc(Cc3c[nH]c4ncc(Cl)cc34)cn2)cc1 (10 µM) | 0 | 0 | 0 | 0 | 0 | 0 | 0 | 0 | 0 | 0
COc1cc(C)c(Sc2cnc(NC(=O)c3ccc(CNC(C)C(C)(C)C)cc3)s2)cc1C(=O)N1CCN(C(C)=O)CC1 (stereo unspecified) (2.5 µM) | 0 | 0 | 0 | 0 | 0 | 0 | 0 | 0 | 0 | 0
O=C1Cc2c([nH]c3ccc(Br)cc23)-c2ncccc2N1 [1-Azakenpaullone] (10 µM) | 0 | 0 | 0 | 0 | 0 | 0 | 0 | 0 | 0 | 0
CN(c1ncccc1CNc1nc(Nc2ccc3c(c2)CC(=O)N3)ncc1C(F)(F)F)S(C)(=O)=O (2.5 µM) | 2 | 0 | 0 | 0 | 0 | 0 | 0 | 0 | 0 | 3
COc1nccc(-c2c(-c3ccc(F)cc3)ncn2C2CCC(O)CC2)n1 (stereo unspecified) (10 µM) | 0 | 0 | 0 | 0 | 0 | 0 | 0 | 0 | 0 | 0
COc1cc(Oc2ccnc3cc(OC)c(OC)cc23)ccc1NC(=O)NC(C)c1nccs1 (stereo unspecified) (2.5 µM) | 0 | 0 | 0 | 0 | 0 | 0 | 0 | 0 | 0 | 0
CCCCC[C@H](O)CC(=O)CCc1ccc(O)c(OC)c1 [[6]-Gingerol] (10 µM) | 0 | 0 | 0 | 0 | 0 | 0 | 0 | 0 | 0 | 0

Compound | number of time points [1] | number of time points [2] | number of time points [3] | number of time points [4] | number of time points [5] | number of time points [6] | number of time points [7] | number of time points [8] | number of time points [9] | number of time points [10]
CNC(=O)c1cccc(-c2ccc3c(N4CCOC[C@@H]4C)nc(N4CCOC[C@@H]4C)nc3n2)c1 [Vistusertib] (2.5 µM) | 0 | 1 | 0 | 0 | 0 | 0 | 0 | 0 | 3 | 3
CCC(=O)N1CCN(c2ccc(-n3c(=O)ccc4cnc5ccc(-c6cnc7ccccc7c6)cc5c43)cc2C(F)(F)F)CC1 [Torin 1] (2 µM) | 0 | 0 | 0 | 0 | 0 | 0 | 0 | 0 | 0 | 0
CC(=O)NCC(=O)N1[C@@H]2CC[C@H]1c1ccc(Nc3ncc(C(F)(F)F)c(NC4CCC4)n3)cc12 (2.5 µM) | 3 | 0 | 0 | 0 | 0 | 0 | 0 | 0 | 3 | 1
CNC(=O)c1cc(Oc2ccc(NC(=O)Nc3cc(C(C)(C)C)nn3-c3ccc4ncccc4c3)c(F)c2)ccn1 [Rebastinib] (2.5 µM) | 4 | 0 | 0 | 0 | 0 | 0 | 0 | 0 | 0 | –
CCOc1cc2ncc(-c3cc(N)nc(F)c3)n2cc1S(=O)(=O)C(C)(C)C (10 µM) | 0 | 0 | 0 | 0 | 0 | 0 | 0 | 0 | 0 | 0
CCc1nc(-c2cccc(C)c2)c(-c2ccnc(NC(=O)c3ccccc3)c2)s1 (10 µM) | 0 | 0 | 0 | 0 | 0 | 0 | 0 | 0 | 0 | 0
CN1CCN(C2CCN(C(=O)Nc3cc(Oc4ccc(NC(=O)C5(C(=O)Nc6ccc(F)cc6)CC5)c(F)c4)ccn3)CC2)CC1 [Golvatinib] (2.5 µM) | 0 | 0 | 0 | 0 | 0 | 0 | 0 | 0 | 0 | –
CC(C)(C#N)c1ccc(N2C(=O)OCc3cnc4ccc(-c5cnc6ccccc6c5)cc4c32)cc1 (2.5 µM) | 0 | 0 | 0 | 0 | 0 | 0 | 0 | 0 | 0 | 0
COc1cc(OC)c(F)c(COc2cnc(Nc3cnn(CCO)c3)nc2)c1F (2.5 µM) | 1 | 0 | 0 | 0 | 0 | 0 | 0 | 0 | 1 | 0
Cc1nc(-c2cnc(NC(C)C)n(C)c2=O)ccc1Oc1ccnc(-c2cnn(C)c2)c1 (2.5 µM) | 0 | 0 | 0 | 0 | 0 | 0 | 0 | 0 | 1 | 0
CC(C)(C)c1cc(NC(=O)Nc2ccc(-c3cn4c(n3)sc3cc(OCCN5CCOCC5)ccc34)cc2)no1 [Quizartinib] (10 µM) | 0 | 2 | 0 | 0 | 2 | 0 | 2 | 0 | 0 | –
Oc1ccc(-c2nc(-c3ccc(F)cc3)c(-c3ccncc3)[nH]2)cc1 (2.5 µM) | 0 | 0 | 0 | 0 | 0 | 0 | 0 | 0 | 0 | 0
NC(=O)c1ccc2nc(-c3ccc(Oc4ccc(Cl)cc4)cc3)[nH]c2c1 (10 µM) | 0 | 0 | 0 | 0 | 0 | 0 | 0 | 0 | 0 | 0
O=c1c(O)c(-c2ccc(O)c(O)c2)oc2cc(O)cc(O)c12 [Quercetin (dihydrate)] (10 µM) | 0 | 0 | 0 | 0 | 0 | 0 | 0 | 0 | 1 | 0
CC(C)(C)c1nc2c3cc[nH]c(=O)c3c3cc(F)ccc3c2[nH]1 [Pyridone 6] (10 µM) | 0 | 0 | 0 | 0 | 0 | 0 | 0 | 0 | 0 | 0
CCN(CCO)CCCOc1ccc2c(Nc3cc(CC(=O)Nc4cccc(F)c4)[nH]n3)ncnc2c1 [Barasertib-HQPA] (10 µM) | 0 | 0 | 0 | 0 | 0 | 0 | 0 | 0 | 0 | 0
COCCOc1cc2nccc(Nc3n[nH]c(C)c3C)c2cc1S(=O)(=O)C(C)(C)C [RIP2 kinase inhibitor 2] (2.5 µM) | 0 | 0 | 0 | 0 | 0 | 0 | 0 | 0 | 0 | 0

Copied from the listing for reference:
Compound | number of time points [1] | number of time points [2] | number of time points [3] | number of time points [4] | number of time points [5] | number of time points [6] | number of time points [7] | number of time points [8] | number of time points [9] | number of time points [10]
CCOc1cc2ncc(-c3cc(N)nc(F)c3)n2cc1S(=O)(=O)C(C)(C)C (10 µM) | 0 | 0 | 0 | 0 | 0 | 0 | 0 | 0 | 0 | 0
CCc1nc(-c2cccc(C)c2)c(-c2ccnc(NC(=O)c3ccccc3)c2)s1 (10 µM) | 0 | 0 | 0 | 0 | 0 | 0 | 0 | 0 | 0 | 0
